In article PMC4943950, “T4 Phage Tail Adhesin Gp12 Counteracts LPS-Induced Inflammation In Vivo” (Frontiers in Microbiology, 2016) one finds binding data, which are given here for one molecule.

These are yes or no findings as the source states them, for the method shown. Sequences can lack the tags named with a protein.

The target in this experiment is T4 phage short tail fiber protein (tail adhesin) gp12, recombinant, His-tagged (bacteriophage T4) (UniProt P10930). The experiment can be described thus: SDS-PAGE of the heated sample; purified gp12 final preparation, heated (denatured) before SDS-PAGE; monomer band at 57.5 kDa; both purified.

B1: T4 phage short tail fiber protein (tail adhesin) gp12, recombinant, His-tagged (natural protein, bacteriophage T4, UniProt P10930 1-527, looked up)
chain: MSNNTYQHVSNESRYVKFDPTDTNFPPEITDVQAAIAAISPAGVNGVPDASSTTKGILFIPTEQEVIDGTNNTKAVTPATLATRLSYPNATETVYGLTRYSTNDEAIAGVNNESSITPAKFTVALNNAFETRVSTESSNGVIKISSLPQALAGADDTTAMTPLKTQQLAIKLIAQIAPSETTATESDQGVVQLATVAQVRQGTLREGYAISPYTFMNSSSTEEYKGVIKLGTQSEVNSNNASVAVTGATLNGRGSTTSMRGVVKLTTTAGSQSGGDASSALAWNADVIQQRGGQIIYGTLRIEDTFTIANGGANITGTVRMTGGYIQGNRIVTQNEIDRTIPVGAIMMWAADSLPSDAWRFCHGGTVSASDCPLYASRIGTRYGGNPSNPGLPDMRGLFVRGSGRGSHLTNPNVNGNDQFGKPRLGVGCTGGYVGEVQIQQMSYHKHAGGFGEHDDLGAFGNTRRSNFVGTRKGLDWDNRSYFTNDGYEIDPESQRNSKYTLNRPELIGNETRPWNISLNYIIKVKE
notes: No step that removes the His-Tag is described; also called phage adhesin
Take B1: the binding entry was “no binding (condition: heated (denatured) before SDS-PAGE)”.
